For test [1], the target named is LanRFP (red lancelet fluorescent protein), His-tagged recombinant protein expressed in E. coli (Brachiostoma lanceolatum (lancelet)). In words: SDS-PAGE (denaturing electrophoresis), self-association into a homotetramer.
Test [2] has the same target. In words: SDS-PAGE after boiling in SDS/DTT loading dye, band at the tetramer position (~105 kD).

Results are given in words; binding and its absence hold for the method and conditions named. Some entries that bind do so weakly or less than the wild type. Sequences can lack the tags named with a protein.

B1: LanRFP (red lancelet fluorescent protein), His-tagged recombinant protein expressed in E. coli (protein)
chain: MVSKGEEDNMAPLPATHDLHISGSINGHEFDLEGSGKGNAKEGYQELHLKSNKGDLSFSPWILVPNIGYGFYQYLPFPDGAMSPYQAAMHDGSGYVMHRSMQFEDGAMLHSDHRYIYKGNHIKGEFRLTGSGFPADGPVMTNSLTAADWCVDKLLYPNDNTIIGKFDWTYTTTSGKRYQSDVQTNVTFGKPIAADILKKQPMFVFRKVELKHTKTELNFKQWQKAFQDIAGMDELYK
On to B1, for which the binding entry in test [1] and in test [2] was “binds” each time.

Values taken from patent publication US20180049962A1.
